Assay results: the supplement of paper PMC7024190
Where a name gives a salt, the structure may show the parent alone. The list shows a part of the results. This data set is noisy: repeats of one test often differ as much as different tests do.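 Human embryonic kidney cells were transiently transfected with a plasmid bearing a Renilla luciferase gene under the HSV-TK promoter. This first-round screen tests roughly ten thousand compounds for ones that increase reporter output.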

These compounds were tested on HEK 293FT (assay: log relative Renilla luciferase luminescence (reporter expression vs reference, reference not stated) (log (base not stated)); higher = higher recombinant reporter expression). Settings: 10 µM; time after transfection 48 h.

| Compound | log |
| --- | --- |
| COc1cc(N)c(Cl)cc1C(=O)CCC1CCN(CCNS(C)(=O)=O)CC1 | 0.0525 |
| Cc1cc(C)c(S(=O)(=O)Nc2ccccc2C(F)(F)F)c(C)c1 | 0.0807 |
| C[C@H](NC[C@H](O)CP(=O)(O)CC1CCCCC1)c1ccc(Cl)c(Cl)c1 | 0.128 |
| FC(F)(F)c1cc(COC2CCCNC2c2ccccc2)cc(C(F)(F)F)c1 [L-733,060 hydrochloride] | 0.035 |
| COc1ccc2cccc(N3CCN(CCNC(=O)c4ccc(F)cc4)CC3)c2c1 | 0.0923 |
| O=C1Cc2c([nH]c3ccc(Br)cc23)-c2ccccc2N1 [Kenpaullone] | 0.0774 |
| CNc1cc2c(Nc3cccc(Br)c3)ncnc2cn1 | -0.713 |
| O=C(Nc1cc(C(F)(F)F)cc(C(F)(F)F)c1)c1cc(Cl)ccc1O | -1.06 |
| COc1cc2c(cc1C(F)(F)F)N(C(=O)Nc1cc(F)cc(-c3cccnc3)c1)CC2 | 0.0525 |
| CCOc1ccc(Nc2nc(-c3c(C)nc4ccccn34)cs2)cc1 | 0.137 |
| CCc1nn(CCCN2CCN(c3cccc(Cl)c3)CC2)c(=O)n1CCOc1ccccc1 [Nefazodone hydrochloride] | -0.0748 |
| O=C(O)C1=CCCN(CCON=C(c2ccccc2)c2ccccc2)C1 | 0.177 |
| N[C@H](C(=O)O)c1cc(O)cc(O)c1 | 0.0438 |
| CC(C)NC[C@H](O)COc1cccc2[nH]ccc12 [(S)-(-)-Pindolol] | -0.0209 |
| CN(C)[C@@H]1CCc2[nH]c3ccc(NC(=O)c4ccc(F)cc4)cc3c2C1 | 0.0836 |
| OC1CCC(Nc2nc(-c3ccccc3)nc3[nH]ccc23)CC1 (centres undefined) | -0.00242 |
| O=C(O)Cn1c(C(=O)Nc2nc(-c3ccccc3Cl)cs2)cc2ccccc21 | 0.0477 |
| CCCc1c(OCCCOc2ccc(OCC(=O)O)cc2)ccc(C(C)=O)c1O | 0.106 |
| O=c1cc(-c2ccccc2)oc2cc(O)c(O)c(O)c12 [Baicalein] | 0.0667 |
| COC(=O)Nc1nc2cc(C(=O)c3cccs3)ccc2[nH]1 [Nocodazole] | -0.0863 |

| Compound | log |
| --- | --- |
| CC(C)c1ccc2c(c1)CC[C@H]1[C@](C)(CN)CCC[C@]21C [Lylamine hydrochloride] | 0.0525 |
| COc1ccc([C@@H]2CNC(=O)C2)cc1OC1CCCC1 [(R)-(-)-Rolipram] | 0.037 |
| Nc1nc2c(ncn2COCCO)c(=O)[nH]1 [Acyclovir] | -0.0188 |
| COc1cc(Br)c(S(=O)(=O)Nc2ccc(Cl)c(O[C@@H]3CCN(C)C3)c2)cc1OC | 0.0554 |
| COc1cc2ncn(-c3cc(OCc4ccccc4C(F)(F)F)c(C(N)=O)s3)c2cc1OC | 0.359 |
| COc1nccc(-c2c(-c3ccc(F)cc3)ncn2C2CCC(O)CC2)n1 (centres undefined) | -0.678 |
| C[C@@H](N)[C@H]1CC[C@H](C(=O)Nc2ccncc2)CC1 | 0.027 |
| N[C@H]1CCN(O)C1=O | -0.178 |
| Nc1[nH]nc2nnc(-c3c(-c4ccccc4)nn4ccccc34)cc12 | -0.0542 |
| C=CCn1c(=O)n([C@@H]2O[C@H](CO)[C@@H](O)[C@H]2O)c2nc(N)[nH]c(=O)c21 | -0.0637 |
| C[C@](N)(Cc1ccc(O)c(O)c1)C(=O)O [L-(-)- α-Methyldopa] | -0.0265 |
| Cc1noc(NS(=O)(=O)c2cccc3c(N(C)C)cccc23)c1C | 0.0598 |
| CCc1cc(C(C)=O)c(O)cc1OCCCCCC(C)(C)c1nn[nH]n1 | -0.129 |
| CC(C)(Oc1ccc(Cl)cc1)C(=O)O [Clofibric acid] | 0.024 |
| CCn1c(=O)[nH]c2cc(Cl)c(Cl)cc21 | 0.0932 |
| OC[C@H]1NC[C@@H](O)[C@@H](O)[C@@H]1O [1-Deoxymannojirimycin hydrochloride] | -0.171 |
| OCCNCCCOc1cccc(Cl)c1Cl [2,3-DCPE hydrochloride] | -0.271 |
| COc1cc(N)c(Cl)cc1C(=O)OCCCN1CCCCC1 | -0.044 |
| Cc1c(NC(=O)N2CCOCC2)ccc2c1c1ccccc1n2C(C)C | -0.00216 |

An excerpt of these results, bar-delimited:
Compound | log
COc1nccc(-c2c(-c3ccc(F)cc3)ncn2C2CCC(O)CC2)n1 (centres undefined) | -0.678
C[C@@H](N)[C@H]1CC[C@H](C(=O)Nc2ccncc2)CC1 | 0.027
